Record: PubChem BioAssay AID743454 (Peter MacCallum Cancer Centre, 2014)
Test: 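Genes whose loss kills vorinostat-resistant colon cancer cells under vorinostat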 (primary screen). Cells: human HCT116-VR colon cancer cells, selected for vorinostat resistance. Reagent: siRNA pool against human genes, 40 nM siRNA pool. Timing: vorinostat for 24 h, read-out about 72 h after transfection. Challenge: vorinostat at 2.5 µM final. Measured: 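Two measures, CellTiter-Fluor viability and luminescent caspase 3/7 activity, each as fold change against same-plate mock wells, mean of duplicates, then screen-wide robust z-score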. Direction: viability robust z-score: higher = more viable cells than screen typical; caspase robust z-score: higher = more caspase 3/7 activity than screen typical. Active means: 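Hits are knock-downs in viability class RV1/RV2 or caspase class CA1/CA2, excluding ones that killed cells in the no-drug cell-count arm; hits then retested with single siRNAs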.
Here is a random part of about 18,000 deposited reagents. 450 of them (2.5%) were called active. 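Single biological run; no consistent viability z cut-off exists, so the class columns, not z-scores, define the calls.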

AQR
- viability hit class: no change
- caspase hit class: CA2 (caspase activation)
- viability robust z-score: -3.85
- caspase robust z-score: 5.27
- activity call: active

PFDN6
- viability hit class: no change
- caspase hit class: no change
- viability robust z-score: -0.93
- caspase robust z-score: 3.36
- activity call: inactive

CCDC83
- viability hit class: no change
- caspase hit class: no change
- viability robust z-score: -0.41
- caspase robust z-score: 0.88
- activity call: inactive

TMPRSS11E
- viability hit class: no change
- caspase hit class: no change
- viability robust z-score: 0.4
- caspase robust z-score: -0.37
- activity call: inactive

MID1IP1
- viability hit class: no change
- caspase hit class: no change
- viability robust z-score: -0.03
- caspase robust z-score: -0.54
- activity call: inactive

INCA1
- viability hit class: no change
- caspase hit class: no change
- viability robust z-score: -0.82
- caspase robust z-score: -0.42
- activity call: inactive

COQ3
- viability hit class: no change
- caspase hit class: no change
- viability robust z-score: -2.48
- caspase robust z-score: 0.18
- activity call: inactive

CDH12
- viability hit class: no change
- caspase hit class: no change
- viability robust z-score: 0.96
- caspase robust z-score: 0.16
- activity call: inactive

INA
- viability hit class: no change
- caspase hit class: no change
- viability robust z-score: 0.12
- caspase robust z-score: 0.92
- activity call: inactive

LARS1
- viability hit class: no change
- caspase hit class: no change
- viability robust z-score: -1.05
- caspase robust z-score: 0.94
- activity call: inactive

GRM4
- viability hit class: no change
- caspase hit class: no change
- viability robust z-score: -1.07
- caspase robust z-score: -0.32
- activity call: inactive

CYP4F12
- viability hit class: no change
- caspase hit class: no change
- viability robust z-score: 0.67
- caspase robust z-score: 0.28
- activity call: inactive

Taken from above:
Under “caspase hit class”, CCDC83 reads no change
Under “activity call”, LARS1 has inactive

Next results follow.
L1CAM
- viability hit class: no change
- caspase hit class: no change
- viability robust z-score: -0.02
- caspase robust z-score: -0.31
- activity call: inactive

OR51I1
- viability hit class: no change
- caspase hit class: no change
- viability robust z-score: 0.22
- caspase robust z-score: 0.38
- activity call: inactive

MRPL2
- viability hit class: no change
- caspase hit class: no change
- viability robust z-score: -2.08
- caspase robust z-score: 3.77
- activity call: inactive

UBE2I
- viability hit class: no change
- caspase hit class: no change
- viability robust z-score: -0.46
- caspase robust z-score: 1.02
- activity call: inactive

PKDCC
- viability hit class: no change
- caspase hit class: no change
- viability robust z-score: -0.45
- caspase robust z-score: 3.21
- activity call: inactive

DUX4L1
- viability hit class: no change
- caspase hit class: no change
- viability robust z-score: 0.86
- caspase robust z-score: -0.74
- activity call: inactive

ZBTB1
- viability hit class: no change
- caspase hit class: no change
- viability robust z-score: -1.99
- caspase robust z-score: -1.02
- activity call: inactive

PENK
- viability hit class: no change
- caspase hit class: no change
- viability robust z-score: -0.34
- caspase robust z-score: -0.86
- activity call: inactive

APOBR
- viability hit class: no change
- caspase hit class: no change
- viability robust z-score: 1.54
- caspase robust z-score: 2.23
- activity call: inactive
